In article PMC7457484:
Results are given in words; binding and its absence hold for the method and conditions named. In cells and extracts the contact can be indirect. These calls come from enrichment with a bait or labelling near it, and not all partners need be listed.

Amino acid sequences for entries named in this document (tags omitted).
UniProt O95071: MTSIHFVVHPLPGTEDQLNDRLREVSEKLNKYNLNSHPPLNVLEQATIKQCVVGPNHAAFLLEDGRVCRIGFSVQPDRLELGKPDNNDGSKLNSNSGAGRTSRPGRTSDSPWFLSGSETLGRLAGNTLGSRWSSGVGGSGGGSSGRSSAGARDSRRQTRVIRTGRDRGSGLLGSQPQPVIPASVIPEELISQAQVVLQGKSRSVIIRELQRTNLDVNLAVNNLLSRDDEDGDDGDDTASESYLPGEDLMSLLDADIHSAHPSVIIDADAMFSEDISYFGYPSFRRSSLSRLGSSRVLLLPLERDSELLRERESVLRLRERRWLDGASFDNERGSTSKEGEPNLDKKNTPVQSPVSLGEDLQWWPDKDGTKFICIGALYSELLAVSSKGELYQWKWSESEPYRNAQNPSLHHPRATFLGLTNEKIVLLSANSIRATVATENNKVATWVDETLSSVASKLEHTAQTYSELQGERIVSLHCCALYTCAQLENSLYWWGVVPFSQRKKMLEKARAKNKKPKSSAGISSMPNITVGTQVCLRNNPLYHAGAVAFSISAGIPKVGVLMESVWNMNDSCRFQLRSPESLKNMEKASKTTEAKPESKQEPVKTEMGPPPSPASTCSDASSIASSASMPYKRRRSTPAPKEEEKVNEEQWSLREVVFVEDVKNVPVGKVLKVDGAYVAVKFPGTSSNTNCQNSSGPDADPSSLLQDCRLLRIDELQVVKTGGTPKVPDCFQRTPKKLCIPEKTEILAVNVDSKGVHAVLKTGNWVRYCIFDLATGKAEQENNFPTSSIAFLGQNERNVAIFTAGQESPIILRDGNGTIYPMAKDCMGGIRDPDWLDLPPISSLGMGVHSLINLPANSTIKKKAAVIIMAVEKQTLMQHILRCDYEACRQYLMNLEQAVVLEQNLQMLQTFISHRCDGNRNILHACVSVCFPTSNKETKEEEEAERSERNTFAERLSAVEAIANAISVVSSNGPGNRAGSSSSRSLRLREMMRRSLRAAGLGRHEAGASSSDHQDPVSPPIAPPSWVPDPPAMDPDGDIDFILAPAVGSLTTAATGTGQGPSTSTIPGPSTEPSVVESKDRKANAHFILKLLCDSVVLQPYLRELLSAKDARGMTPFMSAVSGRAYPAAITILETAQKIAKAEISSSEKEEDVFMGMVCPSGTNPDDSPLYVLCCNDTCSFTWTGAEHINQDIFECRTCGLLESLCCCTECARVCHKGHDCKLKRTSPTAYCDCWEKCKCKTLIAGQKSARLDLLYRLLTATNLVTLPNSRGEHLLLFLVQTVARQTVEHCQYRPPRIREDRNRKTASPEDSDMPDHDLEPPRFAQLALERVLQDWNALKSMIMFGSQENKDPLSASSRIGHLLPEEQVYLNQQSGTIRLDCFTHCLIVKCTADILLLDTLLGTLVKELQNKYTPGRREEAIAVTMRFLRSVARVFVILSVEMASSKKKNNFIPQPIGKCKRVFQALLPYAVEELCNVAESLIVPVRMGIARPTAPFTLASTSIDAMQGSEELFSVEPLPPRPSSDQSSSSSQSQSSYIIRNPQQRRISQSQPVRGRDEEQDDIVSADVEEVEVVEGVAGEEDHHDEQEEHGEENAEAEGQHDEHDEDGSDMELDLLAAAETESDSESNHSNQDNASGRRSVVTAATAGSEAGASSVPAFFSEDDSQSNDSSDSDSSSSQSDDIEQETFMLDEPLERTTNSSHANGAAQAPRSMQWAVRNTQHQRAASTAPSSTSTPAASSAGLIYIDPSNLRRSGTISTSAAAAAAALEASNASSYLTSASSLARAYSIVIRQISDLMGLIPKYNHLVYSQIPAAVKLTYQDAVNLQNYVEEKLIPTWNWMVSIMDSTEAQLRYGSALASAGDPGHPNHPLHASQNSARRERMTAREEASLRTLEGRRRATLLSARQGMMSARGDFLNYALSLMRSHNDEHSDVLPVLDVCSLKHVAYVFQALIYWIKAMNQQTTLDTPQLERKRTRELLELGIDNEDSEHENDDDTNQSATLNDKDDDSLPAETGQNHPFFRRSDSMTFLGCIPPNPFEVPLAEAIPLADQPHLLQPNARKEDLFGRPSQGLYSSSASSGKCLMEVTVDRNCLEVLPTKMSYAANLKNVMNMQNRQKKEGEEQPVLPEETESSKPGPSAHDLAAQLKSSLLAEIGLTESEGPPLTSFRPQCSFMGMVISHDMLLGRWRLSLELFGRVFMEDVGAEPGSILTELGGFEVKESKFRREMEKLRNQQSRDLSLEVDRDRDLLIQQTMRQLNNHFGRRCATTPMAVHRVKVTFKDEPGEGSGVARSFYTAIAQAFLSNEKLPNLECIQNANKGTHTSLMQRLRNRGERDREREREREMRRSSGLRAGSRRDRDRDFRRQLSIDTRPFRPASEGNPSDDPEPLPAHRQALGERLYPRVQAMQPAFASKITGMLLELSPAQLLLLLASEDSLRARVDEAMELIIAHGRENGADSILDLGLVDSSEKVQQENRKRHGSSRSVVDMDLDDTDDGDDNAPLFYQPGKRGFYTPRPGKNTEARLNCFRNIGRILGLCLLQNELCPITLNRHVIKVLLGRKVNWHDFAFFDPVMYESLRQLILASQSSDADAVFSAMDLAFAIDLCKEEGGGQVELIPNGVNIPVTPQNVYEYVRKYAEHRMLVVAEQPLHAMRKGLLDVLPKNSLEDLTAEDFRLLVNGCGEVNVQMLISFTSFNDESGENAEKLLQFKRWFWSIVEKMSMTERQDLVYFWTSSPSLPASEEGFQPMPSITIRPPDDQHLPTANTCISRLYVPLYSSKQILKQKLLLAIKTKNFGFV

Target: FLAG-tagged UBR5 (human) (UniProt O95071)
Assay: affinity purification with mass spectrometry; HEK293T transiently transfected in triplicate with FLAG-UBR5 or FLAG alone (control); 1% CHAPS lysis buffer; anti-FLAG beads, washed, competed off with FLAG peptides in molar excess; mass spectrometry

Row | binding | Binder
1 | binds | Annexin A1 (protein, UniProt P04083 1-346) MAMVSEFLKQAWFIENEEQEYVQTVKSSKGGPGSAVSPYPTFNPSSDVAALHKAIMVKGVDEATIIDILTKRNNAQRQQIKAAYLQETGKPLDETLKKALTGHLEEVVLALLKTPAQFDADELRAAMKGLGTDEDTLIEILASRTNKEIRDINRVYREELKRDLAKDITSDTSGDFRNALLSLAKGDRSEDFGVNEDLADSDARALYEAGERRKGTDVNVFNTILTTRSYPQLRRVFQKYTKYSKHDMNKVLDLELKGDIEKCLTAIVKCATSKPAFFAEKLHQAMKGVGTRHKALIRIMVSRSEIDMNDIKAFYQKMYGISLCQAILDETKGDYEKILVALCGGN
2 | binds | SLC25A6 (protein, UniProt P12236 1-298) MTEQAISFAKDFLAGGIAAAISKTAVAPIERVKLLLQVQHASKQIAADKQYKGIVDCIVRIPKEQGVLSFWRGNLANVIRYFPTQALNFAFKDKYKQIFLGGVDKHTQFWRYFAGNLASGGAAGATSLCFVYPLDFARTRLAADVGKSGTEREFRGLGDCLVKITKSDGIRGLYQGFSVSVQGIIIYRAAYFGVYDTAKGMLPDPKNTHIVVSWMIAQTVTAVAGVVSYPFDTVRRRMMMQSGRKGADIMYTGTVDCWRKIFRDEGGKAFFKGAWSNVLRGMGGAFVLVLYDELKKVI
